Reference: the supplement of paper PMC7661543
The effect of the compound repeats well; differences between the knockouts mostly do not.

System: SKBR3
Assay: relative cell number vs DMSO control (72 h) (% of DMSO); higher = less growth inhibition (more cells)
Description: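 QMAP-Seq: a pool of 5 breast cancer cell lines (ZR-75-1, SKBR3, HCC-38, MDA-MB-231, BT-20), each carrying 12 doxycycline-inducible Cas9 sgRNA perturbations (11 knockouts plus non-targeting sgNT), was treated with compounds for 72 h at four 10-fold doses (10 nM-10 uM or 1 nM-1 uM range). Barcodes were amplified and sequenced, and cell number was interpolated from 293T spike-in standard curves. The result is expressed as % of the median of DMSO wells. Two biological replicates.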

COc1cc2c(Oc3ccc4[nH]c(C)cc4c3F)ncnc2cc1OCCCN1CCCC1 [Cediranib]
Conditions | relative cell number
sgRNA knockout: sgATF3, 10 nM | 102.9
sgRNA knockout: sgATF3, 100 nM | 119
sgRNA knockout: sgATF3, 1000 nM | 98.7
sgRNA knockout: sgATF3, 10000 nM | 10.9
sgRNA knockout: sgATF4, 10 nM | 94.7
sgRNA knockout: sgATF4, 100 nM | 88.2
sgRNA knockout: sgATF4, 1000 nM | 91.4
sgRNA knockout: sgATF4, 10000 nM | 9.25
sgRNA knockout: sgATF6, 10 nM | 97.5
sgRNA knockout: sgATF6, 100 nM | 86.3
sgRNA knockout: sgATF6, 1000 nM | 86.6
sgRNA knockout: sgATF6, 10000 nM | 9.65
sgRNA knockout: sgATG7, 10 nM | 97
sgRNA knockout: sgATG7, 100 nM | 112
sgRNA knockout: sgATG7, 1000 nM | 98.7
sgRNA knockout: sgATG7, 10000 nM | 9.14
sgRNA knockout: sgERN1, 10 nM | 108.5
sgRNA knockout: sgERN1, 100 nM | 112
sgRNA knockout: sgERN1, 1000 nM | 103
sgRNA knockout: sgERN1, 10000 nM | 6.79
sgRNA knockout: sgHSF1, 10 nM | 68.2
sgRNA knockout: sgHSF1, 100 nM | 96.5
sgRNA knockout: sgHSF1, 1000 nM | 92.5
sgRNA knockout: sgHSF1, 10000 nM | 6.65
sgRNA knockout: sgHSF2, 10 nM | 96.4
sgRNA knockout: sgHSF2, 100 nM | 88.89
sgRNA knockout: sgHSF2, 1000 nM | 110
sgRNA knockout: sgHSF2, 10000 nM | 8.29
sgRNA knockout: sgKEAP1, 10 nM | 85.1
sgRNA knockout: sgKEAP1, 100 nM | 101
sgRNA knockout: sgKEAP1, 1000 nM | 79.7
sgRNA knockout: sgKEAP1, 10000 nM | 7.6
sgRNA knockout: sgNFE2L2, 10 nM | 101
sgRNA knockout: sgNFE2L2, 100 nM | 93.4
sgRNA knockout: sgNFE2L2, 1000 nM | 91.4
sgRNA knockout: sgNFE2L2, 10000 nM | 7.48
sgRNA knockout: sgSLC35F2, 10 nM | 106
sgRNA knockout: sgSLC35F2, 100 nM | 87.9
sgRNA knockout: sgSLC35F2, 1000 nM | 85.7
sgRNA knockout: sgSLC35F2, 10000 nM | 9.21
sgRNA knockout: sgXBP1, 10 nM | 95.6
sgRNA knockout: sgXBP1, 100 nM | 110
sgRNA knockout: sgXBP1, 1000 nM | 94.8
sgRNA knockout: sgXBP1, 10000 nM | 8.31

CC(=O)O[C@H]1C(=O)[C@@]2(C)[C@H]([C@H](OC(=O)c3ccccc3)[C@]3(O)C[C@H](OC(=O)[C@H](O)[C@@H](NC(=O)c4ccccc4)c4ccccc4)C(C)=C1C3(C)C)[C@]1(OC(C)=O)CO[C@@H]1C[C@@H]2O [Paclitaxel]
Conditions | relative cell number
sgRNA knockout: sgATF3, 10 nM | 15.1
sgRNA knockout: sgATF3, 100 nM | 11.8
sgRNA knockout: sgATF3, 1000 nM | 17.6
sgRNA knockout: sgATF3, 10000 nM | 24.6
sgRNA knockout: sgATF4, 10 nM | 18.4
sgRNA knockout: sgATF4, 100 nM | 7.67
sgRNA knockout: sgATF4, 1000 nM | 10.2
sgRNA knockout: sgATF4, 10000 nM | 15.7
sgRNA knockout: sgATF6, 10 nM | 10.2
sgRNA knockout: sgATF6, 100 nM | 9.13
sgRNA knockout: sgATF6, 1000 nM | 11.9
sgRNA knockout: sgATF6, 10000 nM | 18.8
sgRNA knockout: sgATG7, 10 nM | 19
sgRNA knockout: sgATG7, 100 nM | 7.32
sgRNA knockout: sgATG7, 1000 nM | 13.7
sgRNA knockout: sgATG7, 10000 nM | 16.3
sgRNA knockout: sgERN1, 10 nM | 15.8
sgRNA knockout: sgERN1, 100 nM | 14.2
sgRNA knockout: sgERN1, 1000 nM | 11.65
sgRNA knockout: sgERN1, 10000 nM | 13.1
sgRNA knockout: sgHSF1, 10 nM | 15.6
sgRNA knockout: sgHSF1, 100 nM | 6.4
sgRNA knockout: sgHSF1, 1000 nM | 12
sgRNA knockout: sgHSF1, 10000 nM | 18.3
sgRNA knockout: sgHSF2, 10 nM | 22.9
sgRNA knockout: sgHSF2, 100 nM | 7.229
sgRNA knockout: sgHSF2, 1000 nM | 11.8
sgRNA knockout: sgHSF2, 10000 nM | 22.5
sgRNA knockout: sgKEAP1, 10 nM | 15
sgRNA knockout: sgKEAP1, 100 nM | 8.79
sgRNA knockout: sgKEAP1, 1000 nM | 9.15
sgRNA knockout: sgKEAP1, 10000 nM | 16.9
sgRNA knockout: sgNFE2L2, 10 nM | 15
sgRNA knockout: sgNFE2L2, 100 nM | 10.2
sgRNA knockout: sgNFE2L2, 1000 nM | 12.3
sgRNA knockout: sgNFE2L2, 10000 nM | 17.3
sgRNA knockout: sgSLC35F2, 10 nM | 15.6
sgRNA knockout: sgSLC35F2, 100 nM | 11.2
sgRNA knockout: sgSLC35F2, 1000 nM | 10.2
sgRNA knockout: sgSLC35F2, 10000 nM | 21.2
sgRNA knockout: sgXBP1, 10 nM | 15.3
sgRNA knockout: sgXBP1, 100 nM | 6.56
sgRNA knockout: sgXBP1, 1000 nM | 12.3
sgRNA knockout: sgXBP1, 10000 nM | 18.5

COc1cc2nccc(Oc3ccc(NC(=O)Nc4cc(C)on4)c(Cl)c3)c2cc1OC [Tivozanib]
Conditions | relative cell number
sgRNA knockout: sgATF3, 10 nM | 97.3
sgRNA knockout: sgATF3, 100 nM | 97.1
sgRNA knockout: sgATF3, 1000 nM | 107
sgRNA knockout: sgATF3, 10000 nM | 79.5
sgRNA knockout: sgATF4, 10 nM | 89.24
sgRNA knockout: sgATF4, 100 nM | 70.5
sgRNA knockout: sgATF4, 1000 nM | 91.9
sgRNA knockout: sgATF4, 10000 nM | 73.1
sgRNA knockout: sgATF6, 10 nM | 97.8
sgRNA knockout: sgATF6, 100 nM | 85.3
sgRNA knockout: sgATF6, 1000 nM | 94
sgRNA knockout: sgATF6, 10000 nM | 72.4
sgRNA knockout: sgATG7, 10 nM | 114
sgRNA knockout: sgATG7, 100 nM | 80.45
sgRNA knockout: sgATG7, 1000 nM | 88.7
sgRNA knockout: sgATG7, 10000 nM | 66.6
sgRNA knockout: sgERN1, 10 nM | 93.2
sgRNA knockout: sgERN1, 100 nM | 91.016
sgRNA knockout: sgERN1, 1000 nM | 96.6
sgRNA knockout: sgERN1, 10000 nM | 72.3
sgRNA knockout: sgHSF1, 10 nM | 98.3
sgRNA knockout: sgHSF1, 100 nM | 72.9
sgRNA knockout: sgHSF1, 1000 nM | 97.4
sgRNA knockout: sgHSF1, 10000 nM | 74.4
sgRNA knockout: sgHSF2, 10 nM | 106
sgRNA knockout: sgHSF2, 100 nM | 96.2
sgRNA knockout: sgHSF2, 1000 nM | 94.4
sgRNA knockout: sgHSF2, 10000 nM | 74.4
sgRNA knockout: sgKEAP1, 10 nM | 101
sgRNA knockout: sgKEAP1, 100 nM | 85.2
sgRNA knockout: sgKEAP1, 1000 nM | 105
sgRNA knockout: sgKEAP1, 10000 nM | 65.9
sgRNA knockout: sgNFE2L2, 10 nM | 82.2
sgRNA knockout: sgNFE2L2, 100 nM | 85.7
sgRNA knockout: sgNFE2L2, 1000 nM | 91.3
sgRNA knockout: sgNFE2L2, 10000 nM | 79.6
sgRNA knockout: sgSLC35F2, 10 nM | 80.2
sgRNA knockout: sgSLC35F2, 100 nM | 103
sgRNA knockout: sgSLC35F2, 1000 nM | 110
sgRNA knockout: sgSLC35F2, 10000 nM | 86.6
sgRNA knockout: sgXBP1, 10 nM | 90.7
sgRNA knockout: sgXBP1, 100 nM | 98.83
sgRNA knockout: sgXBP1, 1000 nM | 82.9
sgRNA knockout: sgXBP1, 10000 nM | 73
